The supplement of paper PMC7661543
The effect of the compound repeats well; differences between the knockouts mostly do not.

Experiments:
Experiment in all cases: relative cell number vs DMSO control (72 h) (% of DMSO); higher = less growth inhibition (more cells)
ZR-75-1 = test system: ZR-75-1
Experimental: (§1)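 QMAP-Seq: a pool of 5 breast cancer cell lines (ZR-75-1, SKBR3, HCC-38, MDA-MB-231, BT-20), each carrying 12 doxycycline-inducible Cas9 sgRNA perturbations (11 knockouts plus non-targeting sgNT), was treated with compounds for 72 h at four 10-fold doses (10 nM-10 uM or 1 nM-1 uM range). Barcodes were amplified and sequenced, and cell number was interpolated from 293T spike-in standard curves. The result is expressed as % of the median of DMSO wells. Two biological replicates.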

SKBR3 = test system: SKBR3
Experimental: as §1

MDA-MB-231 = test system: MDA-MB-231
Experimental: as §1

CC(=O)c1c(C)c2cnc(Nc3ccc(N4CCNCC4)cn3)nc2n(C2CCCC2)c1=O [Palbociclib]
relative cell number
Settings | MDA-MB-231 | SKBR3 | ZR-75-1
sgRNA knockout: sgATF3, 10 nM | 92.4 | 102 | 89.5
sgRNA knockout: sgATF3, 100 nM | 42.2 | 61.4 | 41.6
sgRNA knockout: sgATF3, 1000 nM | 31.6 | 50.1 | 39.7
sgRNA knockout: sgATF3, 10000 nM | 26.9 | 31.3 | 28.7
sgRNA knockout: sgATF4, 10 nM | 78.5 | 81.5 | 79.1
sgRNA knockout: sgATF4, 100 nM | 40 | 56.6 | 44.7
sgRNA knockout: sgATF4, 1000 nM | 32.9 | 52.7 | 39.3
sgRNA knockout: sgATF4, 10000 nM | 25.6 | 34.6 | 33.1
sgRNA knockout: sgATF6, 10 nM | 73.6 | 95.4 | 83.4
sgRNA knockout: sgATF6, 100 nM | 44 | 57.3 | 62
sgRNA knockout: sgATF6, 1000 nM | 29.7 | 50.6 | 35.4
sgRNA knockout: sgATF6, 10000 nM | 16.9 | 31.1 | 38
sgRNA knockout: sgATG7, 10 nM | 99.8 | 67.8 | 118
sgRNA knockout: sgATG7, 100 nM | 51.9 | 78.8 | 33.9
sgRNA knockout: sgATG7, 1000 nM | 26.5 | 59.3 | 36
sgRNA knockout: sgATG7, 10000 nM | 18 | 37.2 | 30.6
sgRNA knockout: sgERN1, 10 nM | 74.9 | 90 | 71.46
sgRNA knockout: sgERN1, 100 nM | 42 | 65.8 | 48.1
sgRNA knockout: sgERN1, 1000 nM | 36 | 45 | 33.78
sgRNA knockout: sgERN1, 10000 nM | 23.5 | 42.9 | 27.8
sgRNA knockout: sgHSF1, 10 nM | 87 | 91.4 | –
sgRNA knockout: sgHSF1, 100 nM | 36.1 | 48.1 | –
sgRNA knockout: sgHSF1, 1000 nM | 33.6 | 40.8 | –
sgRNA knockout: sgHSF1, 10000 nM | 26.3 | 34.8 | –
sgRNA knockout: sgHSF2, 10 nM | 92.2 | 84.78 | 94.7
sgRNA knockout: sgHSF2, 100 nM | 52.7 | 46.5 | 43.5
sgRNA knockout: sgHSF2, 1000 nM | 27.1 | 48.7 | 40.1
sgRNA knockout: sgHSF2, 10000 nM | 24.1 | 32.5 | 36.3
sgRNA knockout: sgKEAP1, 10 nM | 74.8 | 71.4 | –
sgRNA knockout: sgKEAP1, 100 nM | 53.06 | 53.8 | –
sgRNA knockout: sgKEAP1, 1000 nM | 36.3 | 66 | –
sgRNA knockout: sgKEAP1, 10000 nM | 21.2 | 31.1 | –
sgRNA knockout: sgNFE2L2, 10 nM | 79.8 | 84.4 | 105
sgRNA knockout: sgNFE2L2, 100 nM | 45.1 | 46.8 | 59.1
sgRNA knockout: sgNFE2L2, 1000 nM | 43.5 | 47 | 33.5
sgRNA knockout: sgNFE2L2, 10000 nM | 22.9 | 35.9 | 29
sgRNA knockout: sgSLC35F2, 10 nM | 80 | 91.2 | 53.9
sgRNA knockout: sgSLC35F2, 100 nM | 35.3 | 45.1 | 51.6
sgRNA knockout: sgSLC35F2, 1000 nM | 35.2 | 47.2 | 33.5
sgRNA knockout: sgSLC35F2, 10000 nM | 14.8 | 35.8 | 23.2
sgRNA knockout: sgXBP1, 10 nM | 79.6 | 87.6 | 99.8
sgRNA knockout: sgXBP1, 100 nM | 37 | 51.5 | 46.5
sgRNA knockout: sgXBP1, 1000 nM | 27.5 | 47.2 | 33.2
sgRNA knockout: sgXBP1, 10000 nM | 19.5 | 34.8 | 24.5

O=C(O)C(Cc1c[nH]c2ccccc12)N1C(=O)c2ccccc2C1=O (stereo not drawn) [RG108]
relative cell number
Settings | MDA-MB-231 | SKBR3 | ZR-75-1
sgRNA knockout: sgATF3, 10 nM | 107 | 103 | 89.6
sgRNA knockout: sgATF3, 100 nM | 74.2 | 85.2 | 87.3
sgRNA knockout: sgATF3, 1000 nM | 92.9 | 109 | 74.3
sgRNA knockout: sgATF3, 10000 nM | 120 | 89.8 | 106
sgRNA knockout: sgATF4, 10 nM | 110 | 86.5 | 143.7
sgRNA knockout: sgATF4, 100 nM | 72 | 85.23 | 106
sgRNA knockout: sgATF4, 1000 nM | 103 | 97.4 | 110
sgRNA knockout: sgATF4, 10000 nM | 72 | 87.77 | 74.9
sgRNA knockout: sgATF6, 10 nM | 82.7 | 80.4 | 58.2
sgRNA knockout: sgATF6, 100 nM | 102 | 87.9 | 76.4
sgRNA knockout: sgATF6, 1000 nM | 102 | 84.9 | 128
sgRNA knockout: sgATF6, 10000 nM | 92.8 | 86.5 | 58.6
sgRNA knockout: sgATG7, 10 nM | 79.7 | 78.2 | 68
sgRNA knockout: sgATG7, 100 nM | 98.7 | 76.4 | 96.9
sgRNA knockout: sgATG7, 1000 nM | 74.1 | 98.5 | 89.6
sgRNA knockout: sgATG7, 10000 nM | 88.6 | 99.95 | 84.9
sgRNA knockout: sgERN1, 10 nM | 80.4 | 95.2 | 75.9
sgRNA knockout: sgERN1, 100 nM | 88 | 70.5 | 75
sgRNA knockout: sgERN1, 1000 nM | 99.9 | 107 | 90
sgRNA knockout: sgERN1, 10000 nM | 109 | 91.8 | 81.6
sgRNA knockout: sgHSF1, 10 nM | 72.8 | 76 | –
sgRNA knockout: sgHSF1, 100 nM | 91.2 | 92.3 | –
sgRNA knockout: sgHSF1, 1000 nM | 83.9 | 90.6 | –
sgRNA knockout: sgHSF1, 10000 nM | 98.7 | 96.2 | –
sgRNA knockout: sgHSF2, 10 nM | 85.1 | 92.8 | 75.7
sgRNA knockout: sgHSF2, 100 nM | 77.8 | 86.06 | 96.1
sgRNA knockout: sgHSF2, 1000 nM | 94.7 | 75.4 | 86.1
sgRNA knockout: sgHSF2, 10000 nM | 111 | 79.881 | 101
sgRNA knockout: sgKEAP1, 10 nM | 92.2 | 73.3 | –
sgRNA knockout: sgKEAP1, 100 nM | 101 | 77.7 | –
sgRNA knockout: sgKEAP1, 1000 nM | 99.1 | 86 | –
sgRNA knockout: sgKEAP1, 10000 nM | 97.7 | 86.6 | –
sgRNA knockout: sgNFE2L2, 10 nM | 106 | 88.2 | 111
sgRNA knockout: sgNFE2L2, 100 nM | 86.2 | 86.8 | 75.7
sgRNA knockout: sgNFE2L2, 1000 nM | 90.9 | 99.3 | 77.9
sgRNA knockout: sgNFE2L2, 10000 nM | 95.2 | 105.8 | 79
sgRNA knockout: sgSLC35F2, 10 nM | 88.8 | 88.4 | 69.3
sgRNA knockout: sgSLC35F2, 100 nM | 90 | 100 | 84.6
sgRNA knockout: sgSLC35F2, 1000 nM | 96.49 | 80.6 | 111
sgRNA knockout: sgSLC35F2, 10000 nM | 103 | 81.5 | 28
sgRNA knockout: sgXBP1, 10 nM | 80.3 | 89.3 | 103
sgRNA knockout: sgXBP1, 100 nM | 90.8 | 90 | 80.51
sgRNA knockout: sgXBP1, 1000 nM | 105 | 106 | 77.6
sgRNA knockout: sgXBP1, 10000 nM | 103 | 110 | 95.5
